Source: publication PMC8027411
No constants are given. Whether binding was seen depends on the method and setting. In cells and extracts the contact can be indirect. Binding calls can cover weak binding; strength is not graded here. Tags and fused reporters may be left off the sequences shown.

Tests used:
[1] = biological target: T1, FLOT2-Flag (human (cDNA from HEK-293T cells)) (UniProt Q14254); test: co-IP; tagged proteins co-expressed in transfected cells (HEK-293T in Fig. 4c, d), RIPA lysates, anti-Flag or anti-HA beads overnight at 4 °C, five washes; western blot
T1 sequence: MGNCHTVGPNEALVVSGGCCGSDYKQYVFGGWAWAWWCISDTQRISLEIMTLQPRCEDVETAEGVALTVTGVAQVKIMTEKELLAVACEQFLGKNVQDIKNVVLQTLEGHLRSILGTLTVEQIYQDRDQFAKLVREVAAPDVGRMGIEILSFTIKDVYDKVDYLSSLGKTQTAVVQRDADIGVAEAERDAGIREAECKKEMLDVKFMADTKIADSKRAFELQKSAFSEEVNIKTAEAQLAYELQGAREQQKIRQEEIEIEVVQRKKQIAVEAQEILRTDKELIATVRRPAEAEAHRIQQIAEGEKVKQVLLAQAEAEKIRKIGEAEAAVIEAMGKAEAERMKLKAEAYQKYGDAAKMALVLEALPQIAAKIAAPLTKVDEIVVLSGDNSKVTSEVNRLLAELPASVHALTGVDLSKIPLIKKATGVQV

[2] = biological target: T2, FLOT1-Flag (human (cDNA from HEK-293T cells)) (UniProt O75955); test: as above
T2 sequence: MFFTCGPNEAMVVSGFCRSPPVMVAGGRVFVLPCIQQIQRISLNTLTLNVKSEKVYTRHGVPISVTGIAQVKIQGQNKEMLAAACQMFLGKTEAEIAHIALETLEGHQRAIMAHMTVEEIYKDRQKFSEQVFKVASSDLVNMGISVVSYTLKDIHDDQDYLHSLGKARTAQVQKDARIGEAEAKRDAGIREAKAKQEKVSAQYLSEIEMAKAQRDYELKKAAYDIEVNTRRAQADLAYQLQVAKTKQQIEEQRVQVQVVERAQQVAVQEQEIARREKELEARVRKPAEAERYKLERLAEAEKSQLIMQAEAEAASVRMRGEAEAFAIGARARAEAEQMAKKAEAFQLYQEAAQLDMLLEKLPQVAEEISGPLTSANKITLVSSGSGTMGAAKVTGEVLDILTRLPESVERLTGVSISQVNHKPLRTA

In the case of IGF1R-HA (receptor), the binding [1] was “binds” and the binding [2] was “binds”.
